Measured values published in US20230365684A1.
Substitutions are numbered along the chain they refer to. Results are given in words; binding and its absence hold for the method and conditions named. Some entries that bind do so weakly or less than the wild type.

Amino acid sequences for entries named in this document (tags omitted). Residues count along the entry.
UniProt P20138, residues 18-259: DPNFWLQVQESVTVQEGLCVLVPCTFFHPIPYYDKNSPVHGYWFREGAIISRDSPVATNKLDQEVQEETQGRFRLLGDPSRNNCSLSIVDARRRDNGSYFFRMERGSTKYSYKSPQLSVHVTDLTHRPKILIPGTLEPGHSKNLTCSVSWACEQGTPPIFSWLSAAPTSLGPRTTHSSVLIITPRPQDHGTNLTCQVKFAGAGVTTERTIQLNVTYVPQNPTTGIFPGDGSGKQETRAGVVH

B1: C33B1475VH1-36 (scFv)
scFv: DIVMTQSPLSLPVTPGEPASISCRSSQSLLHSDGYNYLDWYLQKSGQSPQLLIYLGSYRASGVPDRFSGSGSGTDFTLKISRVEAEDVGIYYCMQVLQTPWTFGQGTKVEIKGGSEGKSSGSGSESKSTGGSEVQLVESGGGLVQPGGSLRLSCVVSGFTFSSYWMTWVRQAPGKGLEWVANIKQVGSERYYVDSVKGRFTISRDSAKNSLYLQMNSLRAEDTAVYYCAREVGYNWNQGGYFDYWGQGTLVTVSS
B2: C33B1475VH1-46 (scFv)
scFv: B1 scFv with V186T
B3: C33B1475VH1-63 (scFv)
scFv: B1 scFv with V186F
B4: C33B1475VH1-89 (scFv)
scFv: B1 scFv with V186W
B5: C33B1475VH2-12 (scFv)
scFv: B1 scFv with V186D, G187V
B6: C33B1475VH2-16 (scFv)
scFv: B1 scFv with V186D, G187P
B7: C33B1475VH2-20 (scFv)
scFv: B1 scFv with V186D, G187R
B8: C33B1475VH2-22 (scFv)
scFv: B1 scFv with V186D, G187A
B9: C33B1475VH2-24 (scFv)
scFv: B1 scFv with V186D, G187L
B10: C33B1475VH2-35 (scFv)
scFv: B1 scFv with V186D, G187Q
B11: C33B1475VH2-58 (scFv)
scFv: B1 scFv with V186D, G187T
B12: C33B1475VH2-86 (scFv)
scFv: B1 scFv with V186D, G187H
B13: scFv based on C33B1475 (parental clone of the NNK library) (scFv)
scFv: B1 scFv with V186D
B14: C33B1516VL1-1 (scFv)
scFv: QSVLTQPPSASGTPGQRVTISCSGSSSNIGSNIVNWYQQFPGTAPKLLLYSDNQRPSGVPDRFSGSKSGTSASLAISGLQSEDEADYYCAAWDDSLVGPVFGTGTKVTVLGGSEGKSSGSGSESKSTGGSQVQLQESGPGLVKPSETLSLTCSVSGGSIRNYYWSWIRQSAGKELEWFGHIFSTGHINYDSSLKSRVTMSVDTSNNQFSLKLRSVTAADTAVYYCARDNGAALFDFWGQGTLVTVSS
B15: 3B1516VL1-10 (scFv)
scFv: B14 scFv with V97T
B16: C33B1516VL1-11 (scFv)
scFv: B14 scFv with V97G
B17: C33B1516VL1-14 (scFv)
scFv: B14 scFv with V97Q
B18: C33B1516VL1-16 (scFv)
scFv: B14 scFv with V97S
B19: C33B1516VL1-2 (scFv)
scFv: B14 scFv with V97R
B20: C33B1516VL1-20 (scFv)
scFv: B14 scFv with V97A
B21: C33B1516VL1-22 (scFv)
scFv: B14 scFv with V97L
B22: C33B1516VL1-23 (scFv)
scFv: B14 scFv with V97Y
B23: C33B1516VL1-30 (scFv)
scFv: B14 scFv with V97E
B24: C33B1516VL1-4 (scFv)
scFv: B14 scFv with V97P
B25: C33B1516VL2-10 (scFv)
scFv: B14 scFv with V97N, G98E
B26: C33B1516VL2-11 (scFv)
scFv: B14 scFv with V97N, G98W
B27: C33B1516VL2-29 (scFv)
scFv: B14 scFv with V97N, G98Y
B28: C33B1516VL2-3 (scFv)
scFv: B14 scFv with V97N, G98V
B29: C33B1516VL2-35 (scFv)
scFv: B14 scFv with V97N, G98A
B30: C33B1516VL2-4 (scFv)
scFv: B14 scFv with V97N, G98P
B31: C33B1516VL2-7 (scFv)
scFv: B14 scFv with V97N, G98R
B32: C33B1516VL2-8 (scFv)
scFv: B14 scFv with V97N, G98D
B33: C33B1516VH1-10 (scFv)
scFv: B14 scFv with V97N, N229K
B34: C33B1516VH1-13 (scFv)
scFv: B14 scFv with V97N, N229T
B35: C33B1516VH1-17 (scFv)
scFv: B14 scFv with V97N, N229F
B36: C33B1516VH1-21 (scFv)
scFv: B14 scFv with V97N, N229R
B37: C33B1516VH1-27 (scFv)
scFv: B14 scFv with V97N, N229L
B38: C33B1516VH1-3 (scFv)
scFv: B14 scFv with V97N, N229S
B39: C33B1516VH1-4 (scFv)
scFv: B14 scFv with V97N, N229E
B40: C33B1516VH1-56 (scFv)
scFv: B14 scFv with V97N, N229I
B41: C33B1516VH1-7 (scFv)
scFv: B14 scFv with V97N, N229A
B42: C33B1516VH1-8 (scFv)
scFv: B14 scFv with V97N, N229G
B43: C33B1516VH2-8 (scFv)
scFv: B14 scFv with V97N, G230S
B44: C33B1516VH2-9 (scFv)
scFv: B14 scFv with V97N, G230A
B45: C33B1516VL1-39 (scFv)
scFv: B14 scFv with V97F
B46: C33B1516VL1-41 (scFv)
scFv: B14 scFv with V97D
B47: C33B1516VL1-63 (scFv)
scFv: B14 scFv with V97I
B48: C33B1516VL1-90 (scFv)
scFv: B14 scFv with V97H
B49: C33B1516VL2-37 (scFv)
scFv: B14 scFv with V97N, G98N
B50: C33B1516VL2-38 (scFv)
scFv: B14 scFv with V97N, G98K
B51: C33B1516VL2-90 (scFv)
scFv: B14 scFv with V97N, G98L
B52: scFv based on C33B1516 (parental clone of the NNK library) (scFv)
scFv: B14 scFv with V97N
B53: C33B1475VH1-2 (scFv)
scFv: B1 scFv with V186G
B54: C33B1475VH1-3 (scFv)
scFv: B1 scFv with V186A
B55: C33B1475VH1-5 (scFv)
scFv: B1 scFv with V186Y

biological target: CD33 plated on 96 well plates (binding ELISA of Example 20) (UniProt P20138); assay: ELISA on plated CD33, E. coli supernatant heated at 55/60/65 °C, luminescence as percent of RT

binding, binds:
B1
B2
B3
B4
B5
B6
B7
B8
B9
B10
B11
B12
B13
B14
B15
B16
B17
B18
B19
B20
B21
B22
B23
B24
B25
B26
B27
B28
B29
B30
B31
B32
B33
B34
B35
B36
B37
B38
B39
B40
B41
B42
B43
B44
B45
B46
B47
B48
B49
B50
B51
B52
B53
B54
B55
